assay: Perfume headspace (fragrance burst) on dilution of single perfumes in surfactant shower product, GC headspace; type: physicochemical; settings: 5% sodium laurate shower product diluted through the CMC

Row | Compound | fragrance burst
1 | OCCOc1ccccc1 [2-Phenoxyethanol] | no fragrance burst at all
2 | CC(=O)OCc1ccccc1 [Benzyl Acetate] | no fragrance burst at all
3 | C=C(C)[C@H]1CC=C(C)CC1 [Limonene] | ~95%
4 | Cc1ccc(C(C)C)cc1 [p-Cymene] | 120%
5 | CC(=O)/C=C/C1C(C)=CCCC1(C)C (stereo not drawn) [α-ionone] | 430%
6 | CC1=CCC2CC1C2(C)C (stereo not drawn) [α-pinene] | 50%
7 | CC(=O)/C(C)=C/C1C(C)=CCCC1(C)C (centres unmarked) [γ-methyl ionone] | 460%
8 | Tetrahydrolinolool | 320%
